The record followed here is article PMC6052479.

No constants are given. Whether binding was seen depends on the method and setting. In cells and extracts the contact can be indirect. Some entries that bind do so weakly or less than the wild type. Sequences can lack the tags named with a protein.

Assay [1] deals with T1, Flag-CTC1^L1142H (human) (UniProt Q2NKJ3).
T1 sequence: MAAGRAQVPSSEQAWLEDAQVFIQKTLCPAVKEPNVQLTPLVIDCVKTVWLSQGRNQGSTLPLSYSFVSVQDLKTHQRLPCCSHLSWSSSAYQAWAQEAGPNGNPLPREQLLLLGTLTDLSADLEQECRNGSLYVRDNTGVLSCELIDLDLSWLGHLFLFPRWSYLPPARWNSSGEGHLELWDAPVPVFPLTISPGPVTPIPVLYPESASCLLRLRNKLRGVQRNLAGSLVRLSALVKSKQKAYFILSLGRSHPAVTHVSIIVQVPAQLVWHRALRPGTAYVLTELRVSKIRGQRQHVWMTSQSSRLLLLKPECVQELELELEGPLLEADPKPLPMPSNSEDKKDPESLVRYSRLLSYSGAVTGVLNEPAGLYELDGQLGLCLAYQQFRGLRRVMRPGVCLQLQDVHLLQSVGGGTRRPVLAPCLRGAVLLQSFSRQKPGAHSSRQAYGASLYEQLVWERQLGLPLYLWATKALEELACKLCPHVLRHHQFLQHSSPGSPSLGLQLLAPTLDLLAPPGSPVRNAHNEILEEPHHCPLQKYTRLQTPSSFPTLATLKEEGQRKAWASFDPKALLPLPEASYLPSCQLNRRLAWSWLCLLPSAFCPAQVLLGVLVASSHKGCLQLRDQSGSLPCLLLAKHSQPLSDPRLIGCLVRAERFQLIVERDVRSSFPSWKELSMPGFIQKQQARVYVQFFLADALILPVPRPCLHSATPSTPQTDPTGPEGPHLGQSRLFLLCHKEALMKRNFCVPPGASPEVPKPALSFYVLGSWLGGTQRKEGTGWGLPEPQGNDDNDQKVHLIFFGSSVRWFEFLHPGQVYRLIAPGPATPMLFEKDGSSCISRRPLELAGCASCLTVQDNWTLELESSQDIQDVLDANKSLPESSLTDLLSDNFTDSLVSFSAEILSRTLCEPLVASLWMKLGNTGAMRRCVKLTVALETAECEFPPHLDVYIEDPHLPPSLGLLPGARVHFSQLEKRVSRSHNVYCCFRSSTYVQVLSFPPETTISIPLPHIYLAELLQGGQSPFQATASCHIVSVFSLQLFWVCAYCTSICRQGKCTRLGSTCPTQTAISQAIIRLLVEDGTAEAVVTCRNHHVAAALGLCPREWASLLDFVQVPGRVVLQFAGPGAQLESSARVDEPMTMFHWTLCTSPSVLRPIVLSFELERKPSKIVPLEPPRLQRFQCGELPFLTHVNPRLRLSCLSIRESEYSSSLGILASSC
Description: co-IP; Flag-CTC1 (WT or L1142H), HA-STN1 and Myc-TEN1 co-expressed in HEK293T cells; crude lysates, TEB150 buffer, overnight 4°C; blot for endogenous DNA Pol-α (Figures 7a, 7b).

For assay [2], the target named is T1, Flag-CTC1^L1142H (human). Description: co-IP; Flag-CTC1 (WT or mutant) together with HA-STN1, no Myc-TEN1; antibody cross-linked sepharose beads incubated with crude cell lysates in TEB150 buffer (50 mM Hepes pH 7.3, 150 mM NaCl, 2 mM MgCl2, 5 mM EGTA, 0.5% Triton X-100, 10% glycerol) overnight at 4°C; immunoblot; endogenous DNA Pol-α (Figures 1f, 5a, 6a, 7a, 7b).

The next assay concerns the target T2, WT Flag-CTC1 (human) (UniProt Q2NKJ3).
T2 sequence: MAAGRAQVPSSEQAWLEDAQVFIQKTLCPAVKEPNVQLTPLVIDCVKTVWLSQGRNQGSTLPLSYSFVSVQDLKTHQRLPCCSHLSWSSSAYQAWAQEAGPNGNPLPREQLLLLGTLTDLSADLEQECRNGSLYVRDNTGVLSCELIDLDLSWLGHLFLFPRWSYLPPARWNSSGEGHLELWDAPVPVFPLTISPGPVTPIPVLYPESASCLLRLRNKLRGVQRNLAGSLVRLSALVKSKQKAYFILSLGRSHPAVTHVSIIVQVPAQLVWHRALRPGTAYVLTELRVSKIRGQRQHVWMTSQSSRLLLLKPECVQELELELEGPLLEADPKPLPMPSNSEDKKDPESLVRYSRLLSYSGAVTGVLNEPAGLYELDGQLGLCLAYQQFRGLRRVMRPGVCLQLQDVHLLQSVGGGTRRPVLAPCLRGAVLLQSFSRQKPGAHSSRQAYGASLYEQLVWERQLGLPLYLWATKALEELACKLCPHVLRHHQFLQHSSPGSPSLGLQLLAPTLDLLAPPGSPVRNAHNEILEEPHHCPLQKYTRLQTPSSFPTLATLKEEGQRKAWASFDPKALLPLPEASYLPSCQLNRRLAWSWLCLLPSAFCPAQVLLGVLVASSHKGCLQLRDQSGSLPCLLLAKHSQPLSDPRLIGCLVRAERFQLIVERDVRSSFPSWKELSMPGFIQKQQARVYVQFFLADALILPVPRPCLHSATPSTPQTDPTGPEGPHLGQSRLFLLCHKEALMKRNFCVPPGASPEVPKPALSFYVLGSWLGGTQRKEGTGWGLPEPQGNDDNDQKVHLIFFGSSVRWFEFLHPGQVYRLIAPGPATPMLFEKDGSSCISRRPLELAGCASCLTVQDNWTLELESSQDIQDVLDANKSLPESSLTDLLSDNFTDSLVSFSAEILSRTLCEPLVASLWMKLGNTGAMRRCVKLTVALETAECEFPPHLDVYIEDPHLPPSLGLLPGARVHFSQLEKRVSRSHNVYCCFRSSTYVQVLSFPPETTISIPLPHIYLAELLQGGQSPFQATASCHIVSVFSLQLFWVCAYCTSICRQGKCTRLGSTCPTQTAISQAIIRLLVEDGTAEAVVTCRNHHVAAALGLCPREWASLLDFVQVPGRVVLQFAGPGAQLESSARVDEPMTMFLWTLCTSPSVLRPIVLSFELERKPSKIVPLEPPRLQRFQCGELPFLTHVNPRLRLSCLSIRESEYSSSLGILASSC
Described as above.

B1: HA-STN1 (protein, UniProt Q9H668 1-368)
chain: MQPGSSRCEEETPSLLWGLDPVFLAFAKLYIRDILDMKESRQVPGVFLYNGHPIKQVDVLGTVIGVRERDAFYSYGVDDSTGVINCICWKKLNTESVSAAPSAARELSLTSQLKKLQETIEQKTKIEIGDTIRVRGSIRTYREEREIHATTYYKVDDPVWNIQIARMLELPTIYRKVYDQPFHSSALEKEEALSNPGALDLPSLTSLLSEKAKEFLMENRVQSFYQQELEMVESLLSLANQPVIHSASSDQVNFKKDTTSKAIHSIFKNAIQLLQEKGLVFQKDDGFDNLYYVTREDKDLHRKIHRIIQQDCQKPNHMEKGCHFLHILACARLSIRPGLSEAVLQQVLELLEDQSDIVSTMEHYYTAF
For B1, the results for the binding result with Flag-CTC1^L1142H (human) [1], in the assay with Flag-CTC1^L1142H (human) [2] and with WT Flag-CTC1 (human) were “binds”, “binds weakly” and “binds”, respectively.
